Data on six molecules can be found in patent US12729225B2, “Non-canonical SWI/SNF complex and uses thereof” (Dana-Farber Cancer Institute, Inc., priority 2018, dated 2026).

The test system of the data set is mSWI/SNF complexes. Kind of data set: mSWI/SNF complex purification with HA-tagged baits and mass spectrometry (peptide counts). More on the design: species or system human.
Setting [1] is: 293_HA-BRD7: HA-BRD7 bait purification, total peptide count per co-purified protein.
Setting [2] is: 293_HA-BRD7: HA-BRD7 bait purification, unique peptide count per co-purified protein.
The mark [3] stands for this setting: total peptide count of the co-purified protein, 293_HA-BRD9 (HA-BRD9 bait, mass spectrometry), Table 3b.
Setting [4] is: unique peptide count of the co-purified protein, 293_HA-BRD9 (HA-BRD9 bait, mass spectrometry), Table 3b.

B1: HADHB (protein, UniProt P55084 34-474, looked up)
Trifunctional enzyme subunit …: AAPAVQTKTKKTLAKPNIRNVVVVDGVRTPFLLSGTSYKDLMPHDLARAALTGLLHRTSVPKEVVDYIIFGTVIQEVKTSNVAREAALGAGFSDKTPAHTVTMACISANQAMTTGVGLIASGQCDVIVAGGVELMSDVPIRHSRKMRKLMLDLNKAKSMGQRLSLISKFRFNFLAPELPAVSEFSTSETMGHSADRLAAAFAVSRLEQDEYALRSHSLAKKAQDEGLLSDVVPFKVPGKDTVTKDNGIRPSSLEQMAKLKPAFIKPYGTVTAANSSFLTDGASAMLIMAEEKALAMGYKPKAYLRDFMYVSQDPKDQLLLGPTYATPKVLEKAGLTMNDIDAFEFHEAFSGQILANFKAMDSDWFAENYMGRKTKVGLPPLEKFNNWGGSLSLGHPFGATGCRLVMAAANRLRKEGGQYGLVAACAAGGQGHAMIVEAYPK
For B1, the Total was determined as 8 under setting [1] and 1 under setting [3]. For the same molecule, the Unique by setting is: under setting [2], 8; under setting [4], 1.

B2: WAPAL (protein, UniProt Q7Z5K2 1-1190, looked up)
Wings apart-like protein …: MTSRFGKTYSRKGGNGSSKFDEVFSNKRTTLSTKWGETTFMAKLGQKRPNFKPDIQEIPKKPKVEEESTGDPFGFDSDDESLPVSSKNLAQVKCSSYSESSEAAQLEEVTSVLEANSKISHVVVEDTVVSDKCFPLEDTLLGKEKSTNRIVEDDASISSCNKLITSDKVENFHEEHEKNSHHIHKNADDSTKKPNAETTVASEIKETNDTWNSQFGKRPESPSEISPIKGSVRTGLFEWDNDFEDIRSEDCILSLDSDPLLEMKDDDFKNRLENLNEAIEEDIVQSVLRPTNCRTYCRANKTKSSQGASNFDKLMDGTSQALAKANSESSKDGLNQAKKGGVSCGTSFRGTVGRTRDYTVLHPSCLSVCNVTIQDTMERSMDEFTASTPADLGEAGRLRKKADIATSKTTTRFRPSNTKSKKDVKLEFFGFEDHETGGDEGGSGSSNYKIKYFGFDDLSESEDDEDDDCQVERKTSKKRTKTAPSPSLQPPPESNDNSQDSQSGTNNAENLDFTEDLPGVPESVKKPINKQGDKSKENTRKIFSGPKRSPTKAVYNARHWNHPDSEELPGPPVVKPQSVTVRLSSKEPNQKDDGVFKAPAPPSKVIKTVTIPTQPYQDIVTALKCRREDKELYTVVQHVKHFNDVVEFGENQEFTDDIEYLLSGLKSTQPLNTRCLSVISLATKCAMPSFRMHLRAHGMVAMVFKTLDDSQHHQNLSLCTAALMYILSRDRLNMDLDRASLDLMIRLLELEQDASSAKLLNEKDMNKIKEKIRRLCETVHNKHLDLENITTGHLAMETLLSLTSKRAGDWFKEELRLLGGLDHIVDKVKECVDHLSRDEDEEKLVASLWGAERCLRVLESVTVHNPENQSYLIAYKDSQLIVSSAKALQHCEELIQQYNRAEDSICLADSKPLPHQNVTNHVGKAVEDCMRAIIGVLLNLTNDNEWGSTKTGEQDGLIGTALNCVLQVPKYLPQEQRFDIRVLGLGLLINLVEYSARNRHCLVNMETSCSFDSSICSGEGDDSLRIGGQVHAVQALVQLFLERERAAQLAESKTDELIKDAPTTQHDKSGEWQETSGEIQWVSTEKTDGTEEKHKKEEEDEELDLNKALQHAGKHMEDCIVASYTALLLGCLCQESPINVTTVREYLPEGDFSIMTEMLKKFLSFMNLTCAVGTTGQKSISRVIEYLEHC
In turn, B2 showed a Total under setting [3] of 1. The Unique under setting [4] worked out at 1.

B3: MCM4 (protein, UniProt P33991 2-863, looked up)
DNA replication licensing …: SSPASTPSRRGSRRGRATPAQTPRSEDARSSPSQRRRGEDSTSTGELQPMPTSPGVDLQSPAAQDVLFSSPPQMHSSAIPLDFDVSSPLTYGTPSSRVEGTPRSGVRGTPVRQRPDLGSAQKGLQVDLQSDGAAAEDIVASEQSLGQKLVIWGTDVNVAACKENFQRFLQRFIDPLAKEEENVGIDITEPLYMQRLGEINVIGEPFLNVNCEHIKSFDKNLYRQLISYPQEVIPTFDMAVNEIFFDRYPDSILEHQIQVRPFNALKTKNMRNLNPEDIDQLITISGMVIRTSQLIPEMQEAFFQCQVCAHTTRVEMDRGRIAEPSVCGRCHTTHSMALIHNRSLFSDKQMIKLQESPEDMPAGQTPHTVILFAHNDLVDKVQPGDRVNVTGIYRAVPIRVNPRVSNVKSVYKTHIDVIHYRKTDAKRLHGLDEEAEQKLFSEKRVELLKELSRKPDIYERLASALAPSIYEHEDIKKGILLQLFGGTRKDFSHTGRGKFRAEINILLCGDPGTSKSQLLQYVYNLVPRGQYTSGKGSSAVGLTAYVMKDPETRQLVLQTGALVLSDNGICCIDEFDKMNESTRSVLHEVMEQQTLSIAKAGIICQLNARTSVLAAANPIESQWNPKKTTIENIQLPHTLLSRFDLIFLLLDPQDEAYDRRLAHHLVALYYQSEEQAEEELLDMAVLKDYIAYAHSTIMPRLSEEASQALIEAYVDMRKIGSSRGMVSAYPRQLESLIRLAEAHAKVRLSNKVEAIDVEEAKRLHREALKQSATDPRTGIVDISILTTGMSATSRKRKEELAEALKKLILSKGKTPALKYQQLFEDIRGQSDIAITKDMFEEALRALADDDFLTVTGKTVRLL
For B3, the Total runs as follows: under setting [1], 7; under setting [3], 1. The Unique was 6 under setting [2] and 1 under setting [4].

B4: SMC3 (protein, UniProt Q9UQE7 1-1217, looked up)
Structural maintenance of …: MYIKQVIIQGFRSYRDQTIVDPFSSKHNVIVGRNGSGKSNFFYAIQFVLSDEFSHLRPEQRLALLHEGTGPRVISAFVEIIFDNSDNRLPIDKEEVSLRRVIGAKKDQYFLDKKMVTKNDVMNLLESAGFSRSNPYYIVKQGKINQMATAPDSQRLKLLREVAGTRVYDERKEESISLMKETEGKREKINELLKYIEERLHTLEEEKEELAQYQKWDKMRRALEYTIYNQELNETRAKLDELSAKRETSGEKSRQLRDAQQDARDKMEDIERQVRELKTKISAMKEEKEQLSAERQEQIKQRTKLELKAKDLQDELAGNSEQRKRLLKERQKLLEKIEEKQKELAETEPKFNSVKEKEERGIARLAQATQERTDLYAKQGRGSQFTSKEERDKWIKKELKSLDQAINDKKRQIAAIHKDLEDTEANKEKNLEQYNKLDQDLNEVKARVEELDRKYYEVKNKKDELQSERNYLWREENAEQQALAAKREDLEKKQQLLRAATGKAILNGIDSINKVLDHFRRKGINQHVQNGYHGIVMNNFECEPAFYTCVEVTAGNRLFYHIVDSDEVSTKILMEFNKMNLPGEVTFLPLNKLDVRDTAYPETNDAIPMISKLRYNPRFDKAFKHVFGKTLICRSMEVSTQLARAFTMDCITLEGDQVSHRGALTGGYYDTRKSRLELQKDVRKAEEELGELEAKLNENLRRNIERINNEIDQLMNQMQQIETQQRKFKASRDSILSEMKMLKEKRQQSEKTFMPKQRSLQSLEASLHAMESTRESLKAELGTDLLSQLSLEDQKRVDALNDEIRQLQQENRQLLNERIKLEGIITRVETYLNENLRKRLDQVEQELNELRETEGGTVLTATTSELEAINKRVKDTMARSEDLDNSIDKTEAGIKELQKSMERWKNMEKEHMDAINHDTKELEKMTNRQGMLLKKKEECMKKIRELGSLPQEAFEKYQTLSLKQLFRKLEQCNTELKKYSHVNKKALDQFVNFSEQKEKLIKRQEELDRGYKSIMELMNVLELRKYEAIQLTFKQVSKNFSEVFQKLVPGGKATLVMKKGDVEGSQSQDEGEGSGESERGSGSQSSVPSVDQFTGVGIRVSFTGKQGEMREMQQLSGGQKSLVALALIFAIQKCDPAPFYLFDEIDQALDAQHRKAVSDMIMELAVHAQFITTTFRPELLESADKFYGVKFRNKVSHIDVITAEMAKDFVEDDTTHG
Under setting [3], B4 gave a Total of 1. This molecule displayed a Unique under setting [4] of 1.

B5: NOM1 (protein, UniProt Q5C9Z4 1-860, looked up)
Nucleolar MIF4G …: MAASRSAGEAGPGGSQGRVVRMKRRGGRGPRRGPAGGGEKALKRLKLAVEEFVHATSEGEAPGGCEGRGAPVSFRPGGRKSRKELRKEKRHLRKARRLQRTAGPEQGPGLGGRSGAEEASGHRQDTEERARPAPSRDPSPPRKPRPSRVKAKATAATAKTRPSAAATAAARKRALLAANEEEDREIRKLERCLGLNKRKKKDGSSSVPLSFARDGLDYILGALESGKNSGLYDSSGEEEEDAGQTLPESDLESDSQDESEEEEEGDVEKEKKAQEAEAQSEDDDEDTEEEQGEEKEKGAQEKRRGKRVRFAEDEEKSENSSEDGDITDKSLCGSGEKYIPPHVRQAEETVDFKKKEELERLKKHVKGLLNRLSEPNMASISGQLEELYMAHSRKDMNDTLTSALMGACVTASAMPSRLMMEHVLLVSILHHTVGIEVGAHFLEAVVRKFDAIYKYGSEGKECDNLFTVIAHLYNFHVVQSLLIFDILKKLIGTFTEKDIELILLMLKNVGFSLRKDDALSLKELITEAQTKASGAGSEFQDQTRIRFMLETMLALKNNDMRKIPGYDPEPVEKLRKLQRALVRNAGSGSETQLRVSWDSVLSAEQTGRWWIVGSAWSGAPMIDNSHHTHLQKQLVGTVSSKILELARKQRMNTDIRRNIFCTIMTSEDFLDAFEKLLKLGLKDQQEREIIHVLMDCCLQEKTYNPFYAFLASKFCEYERRFQMTFQFSIWDKFRDLENLPATNFSNLVHLVAHLLKTKSLSLSILKVVEFSELDKPRVRFLRKVLSILLMETEVEDLSLIFTRVSDNPKLGVLREGLKLFISHFLLKNAQAHRSADEANVLREKADLATKCLQGKASLRM
Consider B5, for which the Total under setting [1] is listed as 4 and the Total under setting [3] is listed as 1. In addition, the Unique worked out at 4 under setting [2] and 1 under setting [4].

B6: LMNA (protein, UniProt P02545 1-661, looked up)
Prelamin-A/C: METPSQRRATRSGAQASSTPLSPTRITRLQEKEDLQELNDRLAVYIDRVRSLETENAGLRLRITESEEVVSREVSGIKAAYEAELGDARKTLDSVAKERARLQLELSKVREEFKELKARNTKKEGDLIAAQARLKDLEALLNSKEAALSTALSEKRTLEGELHDLRGQVAKLEAALGEAKKQLQDEMLRRVDAENRLQTMKEELDFQKNIYSEELRETKRRHETRLVEIDNGKQREFESRLADALQELRAQHEDQVEQYKKELEKTYSAKLDNARQSAERNSNLVGAAHEELQQSRIRIDSLSAQLSQLQKQLAAKEAKLRDLEDSLARERDTSRRLLAEKEREMAEMRARMQQQLDEYQELLDIKLALDMEIHAYRKLLEGEEERLRLSPSPTSQRSRGRASSHSSQTQGGGSVTKKRKLESTESRSSFSQHARTSGRVAVEEVDEEGKFVRLRNKSNEDQSMGNWQIKRQNGDDPLLTYRFPPKFTLKAGQVVTIWAAGAGATHSPPTDLVWKAQNTWGCGNSLRTALINSTGEEVAMRKLVRSVTVVEDDEDEDGDDLLHHHHGSHCSSSGDPAEYNLRSRTVLCGTCGQPADKASASGSGAQVGGPISSGSSASSVTVTRSYRSVGGSGGGSFGDNLVTRSYLLGNSSPRTQSPQNC
Consider B6, for which the Total reads like this: under setting [1], 13; under setting [3], 1. Besides, the Unique is reported as 13 under setting [2] and 1 under setting [4].
